The other results are listed elsewhere or left out. The main result of the screen is listed elsewhere. These columns were measured beside it and carry no call. Most of these compounds were active or inconclusive in the main read-out, so they are no random draw. The note in brackets gives the kind of curve behind each potency; many fits are weak.
Assay: qHTS Assay for Modulators of Lamin A Splicing
Conditions: HeLa LMNA splicing GFP/RFP minigene ratio, 48 h
Summary of the method: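 Read-out is the ratio of GFP to DsRed2 object intensity, acquired by 488 nm laser-scanning cytometry on HeLa lamin A-EGFP minigene reporter cells. Compound incubation 48 hrs at 37 °C in Opti-MEM with 2% FBS; DMSO 0.5% final.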

[1] = measured here: GFP splicing reporter channel
[2] = measured here: RFP viability control channel

| Compound | AC50 [1] | AC50 [2] |
| --- | --- | --- |
| CCc1ccc(NC(=S)NC2CC3CCCC(C2)N3Cc2cccs2)cc1 (stereo not drawn) | 20 µM [falling, partial curve, poor fit] | 15.8 µM [falling, partial curve, poor fit] |
| Cc1ccccc1NS(=O)(=O)c1cc(C(=O)NCCSC2CCCCC2)ccc1C | 12.6 µM [falling, single point] | 14.1 µM [falling, partial curve, poor fit] |
| CS(=O)(=O)NCC(c1ccco1)N1CCN(c2ccc(F)cc2)CC1 (stereo not drawn) | 0.00316 µM [rising, full curve, poor fit] | – |
| Cc1cccc(C)c1NC(=O)C(=O)NCC(c1ccc2c(c1)OCO2)N1CCOCC1 (stereo not drawn) | 0.02 µM [falling, full curve, poor fit] | 0.02 µM [falling, full curve, poor fit] |
| Cn1c(=O)c2c(ncn2CC(=O)NCc2cccnc2)n(C)c1=O | – | 0.0562 µM [falling, full curve, poor fit] |
| COc1ccc(-n2c(C)cc(C(=O)COC(=O)Cc3n[nH]c(=O)c4ccccc34)c2C)cc1 | 14.1 µM [rising, partial curve] | 35.5 µM [rising, partial curve] |
| COc1ccccc1C(=O)Nc1cccc(-c2cn3ccsc3n2)c1 | – | 20 µM [rising, partial curve, poor fit] |
| Cc1onc(-c2ccccc2Cl)c1C(=O)N[C@H]1C(=O)N2[C@H]1SC(C)(C)[C@H]2C(=O)O | 0.891 µM [falling, full curve, poor fit] | 14.1 µM [falling, single point] |
| CC(O)CNCCCOc1cccc(Oc2ccccc2)c1 (stereo not drawn) | 0.178 µM [falling, full curve] | 0.158 µM [falling, full curve, poor fit] |
| CCN1CCCc2cc(CN(CCN3CCOCC3)C(=S)Nc3ccccc3OC)ccc21 | 25.1 µM [falling, partial curve, poor fit] | – |
| CC(=O)N(C(C)=O)c1ncnc2c1c(-c1ccc(Cl)cc1)nn2C(C)(C)C | 14.1 µM [falling, partial curve] | 35.5 µM [falling, partial curve] |
| COc1ccc(CNc2cc(C)ccc2C)c(OC)c1OC | – | 0.0355 µM [rising, full curve, poor fit] |
| O=C(Nc1ccc(S(=O)(=O)NCc2ccccc2)cc1)c1ccccc1[N+](=O)[O-] | 0.0316 µM [rising, full curve, poor fit] | 25.1 µM [rising, partial curve, poor fit] |
| CCC1(C)Cc2c(sc3nnn(CC(=O)Nc4ccc(Cl)cc4)c(=O)c23)CO1 (stereo not drawn) | 14.1 µM [falling, single point] | – |
| C=CCN1C(c2ccccc2)=CS/C1=C(\C#N)c1nnc2n1CCCCC2 | 7.08 µM [rising, partial curve, poor fit] | 7.94 µM [rising, single point] |
| c1ccc2c(c1)nc(N1CCOCC1)c1c3ccccc3[nH]c21 | 35.5 µM [rising, single point] | 25.1 µM [rising, single point] |
| COc1ccc(Br)cc1CNC(C)c1ccccc1 (stereo not drawn) | 8.91 µM [rising, partial curve] | 7.08 µM [rising, full curve, poor fit] |

| Compound | AC50 [1] | AC50 [2] |
| --- | --- | --- |
| COc1cccc(NC(=S)N2CCN(c3ccccn3)CC2)c1 | – | 17.8 µM [rising, partial curve, poor fit] |
| CCOC(=O)c1c(C)nc2ccccc2c1-c1ccccc1 | – | 10 µM [rising, single point] |
| N#CCSc1nccc(-c2cc(Cl)sc2Cl)n1 | 35.5 µM [rising, single point] | – |
| Cc1cc(C)c(C#N)c(Oc2ccccc2Br)n1 | 0.0794 µM [rising, partial curve, poor fit] | 0.0141 µM [rising, full curve, poor fit] |
| COc1ccc2c(c1)c(CC(=O)Nc1ccc(C(C)=O)cc1)c(C)n2C(=O)c1ccc(Cl)cc1 | – | 15.8 µM [rising, partial curve, poor fit] |
| c1ccc(N2CCN(c3nc(NCc4ccco4)c4ccccc4n3)CC2)cc1 | – | 35.5 µM [rising, single point] |
| O=c1oc2ccccc2cc1-c1csc(Nc2ccc(O)cc2)n1 | – | 10 µM [rising, partial curve, poor fit] |
| Cc1ccc(-c2nnc(SCC(=O)N/N=C/c3c(C)nn(-c4ccccc4)c3C)n2-c2ccccc2)cc1 | – | 20 µM [rising, partial curve, poor fit] |
| CCn1c(O)c(C=Nc2ccccc2)sc1=O | 0.158 µM [rising, full curve, poor fit] | – |
| CCOC(=O)c1cnn(-c2ccc(Cl)cc2)c1C1CCN(C(=O)OC(C)(C)C)CC1 | – | 31.6 µM [rising, single point] |
| CC(=O)c1cccc(N2C(=O)C3C4CCC(C4=C(C)C)C3C2=O)c1 (stereo not drawn) | 22.4 µM [falling, single point] | 0.0447 µM [falling, full curve, poor fit] |
| O=C(N/N=C/c1cc(Br)ccc1O)C(=O)Nc1ccccc1OC(F)(F)C(F)F | 5.62 µM [falling, full curve] | 6.31 µM [falling, full curve] |
| COc1ccc(Cn2c(SCc3cc(C)ccc3C)nc3cc(OC)c(OC)cc3c2=N)cc1 | 15.8 µM [falling, single point] | 35.5 µM [falling, single point] |
| CN1CCc2c(sc(NC(=O)CSc3ccc(F)cc3)c2-c2nc3ccccc3s2)C1 | 11.2 µM [rising, partial curve] | – |
| CCOc1cc(CNc2ccccc2)cc(Br)c1OCc1ccc(F)cc1 | – | 35.5 µM [rising, single point] |
| S=C(NCC1CCCO1)N1CCN(c2nc(-c3ccc(Cl)cc3)cs2)CC1 (stereo not drawn) | 35.5 µM [rising, single point] | – |

Source: PubChem BioAssay AID1487 (National Center for Advancing Translational Sciences (NCATS), 2009)
